# The supplement of paper PMC8728848
# Some of the results follow.
# Key:
# Experiment in all cases: glycan array binding signal (z-score within array); higher = stronger binding
# Conditions in all cases: glycan notation: IUPAC condensed, linker removed
# [1] = target: Gal(b1-4)GlcNAc(b1-2)Man(a1-3)[Gal(b1-4)GlcNAc(b1-2)Man(a1-6)]Man(b1-4)GlcNAc(b1-4)[Fuc(a1-6)]GlcNAc
# Outline: (§1)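 Negative Z-scores can be read as non-binding. The Z-score is calculated within each array and then averaged across arrays of one protein sequence at different concentrations or buffers and across linkers. Arrays, 3228 in all, were curated from the Consortium for Functional Glycomics database and kept only where the protein sequence was available.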
# [2] = target: Gal(b1-4)GlcNAc(b1-2)Man(a1-3)[Gal(b1-4)GlcNAc(b1-2)Man(a1-6)][Gal(b1-4)GlcNAc(b1-4)]Man(b1-4)GlcNAc(b1-4)[Fuc(a1-6)]GlcNAc
# Outline: as §1
# [3] = target: Gal(b1-4)GlcNAc(b1-2)Man(a1-3)[Gal(b1-4)GlcNAc(b1-2)Man(a1-6)][GlcNAc(b1-4)]Man(b1-4)GlcNAc(b1-4)[Fuc(a1-6)]GlcNAc
# Outline: as §1
# [4] = target: Gal(b1-4)GlcNAc(b1-2)Man(a1-3)[GlcNAc(b1-2)Man(a1-6)]Man(b1-4)GlcNAc(b1-4)GlcNAc
# Outline: as §1
# [5] = target: Gal(b1-4)GlcNAc(b1-2)Man(a1-3)[GlcNAc(b1-4)][Gal(b1-4)GlcNAc(b1-2)Man(a1-6)]Man(b1-4)GlcNAc(b1-4)GlcNAc
# Outline: as §1
# [6] = target: Gal(b1-4)GlcNAc(b1-2)Man(a1-3)[Man(a1-6)]Man(b1-4)GlcNAc(b1-4)GlcNAc
# Outline: as §1
# [7] = target: Gal(b1-4)GlcNAc(b1-2)Man(a1-6)Man(b1-4)GlcNAc(b1-4)GlcNAc
# Outline: as §1
# [8] = target: Gal(b1-4)GlcNAc(b1-2)Man(a1-6)[GlcNAc(b1-2)Man(a1-3)]Man(b1-4)GlcNAc(b1-4)GlcNAc
# Outline: as §1
# [9] = target: Gal(b1-4)GlcNAc(b1-2)Man(a1-6)[Man(a1-3)]Man(b1-4)GlcNAc(b1-4)GlcNAc
# Outline: as §1
# [10] = target: Gal(b1-4)GlcNAc(b1-2)[Gal(b1-4)GlcNAc(b1-4)]Man(a1-3)[Gal(b1-4)GlcNAc(b1-2)Man(a1-6)]Man(b1-4)GlcNAc(b1-4)GlcNAc
# Outline: as §1
# [11] = target: Gal(b1-4)GlcNAc(b1-2)[Gal(b1-4)GlcNAc(b1-4)]Man(a1-3)[Gal(b1-4)GlcNAc(b1-2)[Gal(b1-4)GlcNAc(b1-6)]Man(a1-6)]Man(b1-4)GlcNAc(b1-4)GlcNAc
# Outline: as §1
# [12] = target: Gal(b1-4)GlcNAc(b1-2)[Gal(b1-4)GlcNAc(b1-4)]Man(a1-3)[GlcNAc(b1-4)][Gal(b1-4)GlcNAc(b1-2)Man(a1-6)]Man(b1-4)GlcNAc(b1-4)GlcNAc
# Outline: as §1
# [13] = target: Gal(b1-4)GlcNAc(b1-2)[Gal(b1-4)GlcNAc(b1-4)]Man(a1-3)[GlcNAc(b1-4)][Gal(b1-4)GlcNAc(b1-2)[Gal(b1-4)GlcNAc(b1-6)]Man(a1-6)]Man(b1-4)GlcNAc(b1-4)GlcNAc
# Outline: as §1
# [14] = target: Gal(b1-4)GlcNAc(b1-2)[Gal(b1-4)GlcNAc(b1-6)]Man(a1-6)[Gal(b1-4)GlcNAc(b1-2)Man(a1-3)]Man(b1-4)GlcNAc(b1-4)GlcNAc
# Outline: as §1
# [15] = target: Gal(b1-4)GlcNAc(b1-2)[Gal(b1-4)GlcNAc(b1-6)]Man(a1-6)[Gal(b1-4)GlcNAc(b1-2)Man(a1-3)]Man(b1-4)GlcNAc(b1-4)[Fuc(a1-6)]GlcNAc
# Outline: as §1
# [16] = target: Gal(b1-4)GlcNAc(b1-2)[Gal(b1-4)GlcNAc(b1-6)]Man(a1-6)[GlcNAc(b1-4)][Gal(b1-4)GlcNAc(b1-2)Man(a1-3)]Man(b1-4)GlcNAc(b1-4)GlcNAc
# Outline: as §1
# [17] = target: Gal(b1-4)GlcNAc(b1-2)[Gal(b1-4)GlcNAc(b1-6)]Man(a1-6)[GlcNAc(b1-4)][Gal(b1-4)GlcNAc(b1-2)[Gal(b1-4)GlcNAc(b1-4)]Man(a1-3)]Man(b1-4)GlcNAc(b1-4)[Fuc(a1-6)]GlcNAc
# Outline: as §1
# [18] = target: Gal(b1-4)GlcNAc(b1-3)Gal(b1-3)GalNAc
# Outline: as §1
# [19] = target: Gal(b1-4)GlcNAc(b1-3)Gal(b1-3)GlcNAc
# Outline: as §1
binder,measurement,setting,value
Aap lectin (Staphylococcus epidermidis) (protein) VNLNYSSPFMSLLSMPADSSSNNTKNTIDIPPTTVKGRDNYDFYGRVDIESNPTDLNATNLTRYNYGQPPGTTTAGAVQFKNQVSFDKDFDFNIRVANNRQSNTTGADGWGFMFSKKDGDDFLKNGGILREKGTPSAAGFRIDTGYYNNDPLDKIQKQAGQGYRGYGTFVKNDSQGNTSKVGSGTPSTDFLNYADNTTNDLDGKFHGQKLNNVNLKYNASNQTFTATYAGKTWTATLSELGLSPTDSYNFLVTSS,glycan array binding signal (z-score),[1],-0.322
same,glycan array binding signal (z-score),[2],-0.996
same,glycan array binding signal (z-score),[3],0.361
same,glycan array binding signal (z-score),[4],-0.746
same,glycan array binding signal (z-score),[5],1.94
same,glycan array binding signal (z-score),[6],0.805
same,glycan array binding signal (z-score),[7],-0.684
same,glycan array binding signal (z-score),[8],-0.656
same,glycan array binding signal (z-score),[9],2.29
same,glycan array binding signal (z-score),[10],0.283
same,glycan array binding signal (z-score),[11],-0.447
same,glycan array binding signal (z-score),[12],0.627
same,glycan array binding signal (z-score),[13],-0.249
same,glycan array binding signal (z-score),[14],-0.293
same,glycan array binding signal (z-score),[15],1.62
same,glycan array binding signal (z-score),[16],-0.475
same,glycan array binding signal (z-score),[17],-0.641
same,glycan array binding signal (z-score),[18],0.095
same,glycan array binding signal (z-score),[19],0.268

# A section from the list above, as a working copy:
binder,measurement,setting,value
Aap lectin (Staphylococcus epidermidis) (protein) VNLNYSSPFMSLLSMPADSSSNNTKNTIDIPPTTVKGRDNYDFYGRVDIESNPTDLNATNLTRYNYGQPPGTTTAGAVQFKNQVSFDKDFDFNIRVANNRQSNTTGADGWGFMFSKKDGDDFLKNGGILREKGTPSAAGFRIDTGYYNNDPLDKIQKQAGQGYRGYGTFVKNDSQGNTSKVGSGTPSTDFLNYADNTTNDLDGKFHGQKLNNVNLKYNASNQTFTATYAGKTWTATLSELGLSPTDSYNFLVTSS,glycan array binding signal (z-score),[6],0.805
same,glycan array binding signal (z-score),[7],-0.684
same,glycan array binding signal (z-score),[8],-0.656
same,glycan array binding signal (z-score),[9],2.29
